Source: publication PMC7819943, “Rice protein-binding microarrays: a tool to detect cis-acting elements near promoter regions in rice”
The other results are listed elsewhere or left out.

Amino acid sequences for entries named in this document (tags omitted).
UniProt Q0JBA9, entry or part of it: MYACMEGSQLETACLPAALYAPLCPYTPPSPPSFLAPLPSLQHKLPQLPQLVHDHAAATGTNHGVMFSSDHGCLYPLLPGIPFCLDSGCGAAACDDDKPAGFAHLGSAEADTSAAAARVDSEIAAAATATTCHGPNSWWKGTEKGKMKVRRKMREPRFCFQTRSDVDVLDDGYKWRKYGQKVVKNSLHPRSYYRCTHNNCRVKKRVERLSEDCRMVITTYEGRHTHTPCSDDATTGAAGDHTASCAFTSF

target: OsWRKY34 (Oryza sativa, UniProt Q0JBA9 1-250); assay: protein-binding microarray (RPBM); PBS, 2% BSA, 51.3 ng/ul salmon testes DNA, 50 uM zinc acetate, 200 nM TF, 25 C, 1 h; high values mean tight binding; settings: protein: recombinant; tags: N-terminal polyhistidine and DsRed monomer fusion (pET32a); label: CyDye5-dUTP incorporated in the synthesized complementary strand; 3' TTTTT single-stranded linker to array surface; dsDNA, one strand shown
How it was run: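 Using Ni–NTA, transcription factors fused N-terminally to polyhistidine and DsRed were purified after expression in E. coli BL21-CodonPlus. These were incubated at 200 nM with a blocked, double-stranded custom Agilent array for 1 h at 25 °C in a buffer containing 50 µM zinc acetate, and the array was washed. The binding signal is per-feature fluorescence intensity (arbitrary units) on an Axon 4000B scanner.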

Q: With “AAGATTCAGCAGCATTTTGGCCATTGACCCTTACCCTTCACGGAGTCACCTAGTGCAG” as the sequence, how does the binding signal read?
A: Its binding signal is 10100 fluorescence intensity (a.u.).

Q: “CCTTTAATTATCAATTGTTTTACTTTGCTCTAATACACTTCGGAGTCACCTAGTGCAG” was tested. Which binding signal did it give?
A: Its binding signal is 10200 fluorescence intensity (a.u.).

Q: Which binding signal does the source give for “GTCCATTCCCGTGGGTACAGCTCGTGGGTTCTTCCCGATTCGGAGTCACCTAGTGCAG” here?
A: The binding signal was 8540 fluorescence intensity (a.u.).

Q: For “CTTGGGCATATATATGGAGTATATATTTATCATCAATTCCCGGAGTCACCTAGTGCAG”, which binding signal is on record?
A: The binding signal was 8720 fluorescence intensity (a.u.).

Q: For “TCATTGTGTTTGATTTCCCTTATGTCTACACCAAAAAGCACGGAGTCACCTAGTGCAG”, which binding signal is on record?
A: The binding signal was 8230 fluorescence intensity (a.u.).

Q: For “TGTATGATGCCTTTAACTTTTTAACCAACGTTTAATGTTTCGGAGTCACCTAGTGCAG”, which binding signal is on record?
A: The binding signal was 9010 fluorescence intensity (a.u.).

Q: With “CATCATCCATCCATCCATCCACCGATTTATCACTCAGACACGGAGTCACCTAGTGCAG” as the sequence, how does the binding signal read?
A: Its binding signal is 8410 fluorescence intensity (a.u.).

Q: Which binding signal does the source give for “TCTTCTCTTTCTCTCTTTCTTTGTGATCCGTGCAGAAGAACGGAGTCACCTAGTGCAG” here?
A: Its binding signal is 8960 fluorescence intensity (a.u.).

Q: Which binding signal does the source give for “CATCGCGGTCACTCGTTTTCATCTCGTGGGACGGGTATATCGGAGTCACCTAGTGCAG” here?
A: The binding signal was 8320 fluorescence intensity (a.u.).

Q: For “AGTCGCTCTCCTTCTCTCCAAACCGACCTCCGCGACCTATCGGAGTCACCTAGTGCAG”, which binding signal is on record?
A: The binding signal was 8640 fluorescence intensity (a.u.).

Q: How did the binding signal turn out when “CAGCTTTCTCAACTCCTTTTCACACATCAAGTTCAATTGCCGGAGTCACCTAGTGCAG” was run?
A: Its binding signal is 10700 fluorescence intensity (a.u.).

Q: How did the binding signal turn out when “GCGTTTACCTGATCGCTCTTCAGTTTTGAACCACAGAATTCGGAGTCACCTAGTGCAG” was run?
A: Its binding signal is 8960 fluorescence intensity (a.u.).

Q: With “TCGCGTAGGCAGAGCCGGTCGAGTCTTGTGCTTGCTTCTCCGGAGTCACCTAGTGCAG” as the sequence, how does the binding signal read?
A: Its binding signal is 8650 fluorescence intensity (a.u.).

Q: For “ACCGAACCACACAACAACCGTCGCGGAACCACCACATCATCGGAGTCACCTAGTGCAG”, which binding signal is on record?
A: The binding signal was 8330 fluorescence intensity (a.u.).

Q: Which binding signal does the source give for “GCTATTTTTAGTTTTACATGGCCGCTCTCACTTCAATCCTCGGAGTCACCTAGTGCAG” here?
A: The binding signal was 12700 fluorescence intensity (a.u.).

Q: With “TTCCCATGGTAACGATAGCCCAAGATTCATGGCCCAACCACGGAGTCACCTAGTGCAG” as the sequence, how does the binding signal read?
A: The binding signal was 8850 fluorescence intensity (a.u.).

Q: How did the binding signal turn out when “AATCAACCTTTCAAAAAAGGGCGGGTTTTGCTAATTTTTTCGGAGTCACCTAGTGCAG” was run?
A: The binding signal was 10300 fluorescence intensity (a.u.).

Q: Which binding signal does the source give for “AAAAAAGTTCATTTTGGGTTTCTGTGTATAAGTTTGACCACGGAGTCACCTAGTGCAG” here?
A: Its binding signal is 9570 fluorescence intensity (a.u.).

Q: With “AGCTCCGCCGGCGCGTTGACTATGGGCGTGACGAGTTGCACGGAGTCACCTAGTGCAG” as the sequence, how does the binding signal read?
A: The binding signal was 8060 fluorescence intensity (a.u.).

Q: With “TTTCCATATTCAGAGTTTCAGACTATAGTGCCTTTGATTTCGGAGTCACCTAGTGCAG” as the sequence, how does the binding signal read?
A: Its binding signal is 8820 fluorescence intensity (a.u.).

Q: With “TTTGTATACGCCCGTTGCCGCCCTATTTGACCATCGATAGCGGAGTCACCTAGTGCAG” as the sequence, how does the binding signal read?
A: Its binding signal is 14900 fluorescence intensity (a.u.).

Q: For “TCCACACTGCCACCTTGTGCAACTATCAACACCATTGCCTCGGAGTCACCTAGTGCAG”, which binding signal is on record?
A: Its binding signal is 10300 fluorescence intensity (a.u.).

Q: Which binding signal does the source give for “GCTTGCTTGCTTGTTGCTTCCATTCCATTCCATTCCACACCGGAGTCACCTAGTGCAG” here?
A: The binding signal was 10400 fluorescence intensity (a.u.).

Q: For “GCCCACATTGCACATTACTTTCTTGGGCCGCAAGAAGATCCGGAGTCACCTAGTGCAG”, which binding signal is on record?
A: Its binding signal is 11100 fluorescence intensity (a.u.).

Q: For “CCATCTAAAACAGTTCGCGTGCAGTCCAGCTCCAGCCCAACGGAGTCACCTAGTGCAG”, which binding signal is on record?
A: The binding signal was 10200 fluorescence intensity (a.u.).

Q: “AAACGAACCTATACTTAACTTTCTCTATTTTGAAACCCTACGGAGTCACCTAGTGCAG” was tested. Which binding signal did it give?
A: The binding signal was 9220 fluorescence intensity (a.u.).

Q: “GGGGTTCTTGGTCAAGCTATGGTTGTCCTGGCTGTGAATTCGGAGTCACCTAGTGCAG” was tested. Which binding signal did it give?
A: Its binding signal is 13400 fluorescence intensity (a.u.).

Q: How did the binding signal turn out when “AACCACTCATCCCACCTTGCTGCTACGTGGCCAACCAACTCGGAGTCACCTAGTGCAG” was run?
A: Its binding signal is 13400 fluorescence intensity (a.u.).

Q: “TGTCGCCACTAGCCGCCGCCAACCACCAACCCGTCATCGACGGAGTCACCTAGTGCAG” was tested. Which binding signal did it give?
A: Its binding signal is 8930 fluorescence intensity (a.u.).

Q: “ACCGGTTTCGTGGGGCTGGAATACGAGGTTGATCTCGTTACGGAGTCACCTAGTGCAG” was tested. Which binding signal did it give?
A: Its binding signal is 8020 fluorescence intensity (a.u.).

Q: For “GGTCCAATCAAACGGTCATTCTTGTGTTTTCCCTGTGTTTCGGAGTCACCTAGTGCAG”, which binding signal is on record?
A: The binding signal was 14400 fluorescence intensity (a.u.).

Q: Which binding signal does the source give for “CCTTTTGAGTTTTGGCAGATTGTTGCAATTGTGGTATTCTCGGAGTCACCTAGTGCAG” here?
A: The binding signal was 10100 fluorescence intensity (a.u.).

Q: How did the binding signal turn out when “TCCTGTAGCAATTTTTTTTGGTTTTTTTTCGACTATACGACGGAGTCACCTAGTGCAG” was run?
A: The binding signal was 8470 fluorescence intensity (a.u.).

Q: How did the binding signal turn out when “AGGATCTTTATACACATAGCTACCACAATGGCTACAATTACGGAGTCACCTAGTGCAG” was run?
A: Its binding signal is 8130 fluorescence intensity (a.u.).

Q: “TCGATTCCCTCCGCTCCGGTGACCTCCTCGTCGATTCTTTCGGAGTCACCTAGTGCAG” was tested. Which binding signal did it give?
A: Its binding signal is 10200 fluorescence intensity (a.u.).

Q: Which binding signal does the source give for “CATGATCATCATGAATCAATCACCCGCCGTCCGTTGCATCCGGAGTCACCTAGTGCAG” here?
A: The binding signal was 8140 fluorescence intensity (a.u.).

Q: “CCTGCTCCTTGTGTTCCTCTCTCCTCTCCTCTCCTCCGCGCGGAGTCACCTAGTGCAG” was tested. Which binding signal did it give?
A: The binding signal was 9400 fluorescence intensity (a.u.).

Q: Which binding signal does the source give for “ACTATTCACCGATTTACTGTAGCGATCGATCTTGTTCGTTCGGAGTCACCTAGTGCAG” here?
A: Its binding signal is 8830 fluorescence intensity (a.u.).

Q: Which binding signal does the source give for “GCTTCAACCTCTTGGTAACTTTCCTTTGAGTCTATCTCTCCGGAGTCACCTAGTGCAG” here?
A: Its binding signal is 11500 fluorescence intensity (a.u.).

Q: How did the binding signal turn out when “ATTTCTCTTTTTGAATTCTTCTACATGTTTTCCTTCGCGCCGGAGTCACCTAGTGCAG” was run?
A: The binding signal was 9440 fluorescence intensity (a.u.).

Q: For “CCATTGCAATCCTGTCGTCTATTTGTATTTGTTTTTTGTTCGGAGTCACCTAGTGCAG”, which binding signal is on record?
A: Its binding signal is 11100 fluorescence intensity (a.u.).

Q: “GGTGGGAGAGATAAAACCAAGACTCTAATATTCTCATGTTCGGAGTCACCTAGTGCAG” was tested. Which binding signal did it give?
A: The binding signal was 8040 fluorescence intensity (a.u.).

Q: “AAGAGAAATATCTGGTTGCTCCAGCTTGGCATCGTTGACCCGGAGTCACCTAGTGCAG” was tested. Which binding signal did it give?
A: Its binding signal is 9780 fluorescence intensity (a.u.).

Q: For “GACAGCTTAATTTACTCTGTTGTTTCCCATAGTCAAAAGTCGGAGTCACCTAGTGCAG”, which binding signal is on record?
A: The binding signal was 8040 fluorescence intensity (a.u.).

Q: For “AAACAAATTTACCACTACCATCCCAAGAAGCTGCTACTACCGGAGTCACCTAGTGCAG”, which binding signal is on record?
A: The binding signal was 8680 fluorescence intensity (a.u.).

Q: How did the binding signal turn out when “CGCTTATATAAACTCATTCCTAACTCGTTCTCATCCCAATCGGAGTCACCTAGTGCAG” was run?
A: Its binding signal is 8880 fluorescence intensity (a.u.).

Q: How did the binding signal turn out when “AAAATGGTATTTGATGTATTTTAATTATATGTTTGTTTTTCGGAGTCACCTAGTGCAG” was run?
A: The binding signal was 8830 fluorescence intensity (a.u.).

Q: For “CACCATGGTCTTTACTGTAGTAGTTACTAATCTATGTATACGGAGTCACCTAGTGCAG”, which binding signal is on record?
A: Its binding signal is 8220 fluorescence intensity (a.u.).

Q: How did the binding signal turn out when “CACCGCACGCGAGCCGCCTCACCTCGCGATCTCCCTCCTCCGGAGTCACCTAGTGCAG” was run?
A: Its binding signal is 9360 fluorescence intensity (a.u.).

Q: Which binding signal does the source give for “ACCACCACCACCACGGCCACGCGACCCAAAACCAAAGCGACGGAGTCACCTAGTGCAG” here?
A: Its binding signal is 8150 fluorescence intensity (a.u.).

Q: “CTCTACTTCTAATATTCCTTATTTTTTTAATTCCGAATTTCGGAGTCACCTAGTGCAG” was tested. Which binding signal did it give?
A: Its binding signal is 8800 fluorescence intensity (a.u.).

Q: Which binding signal does the source give for “GTTGTTTGGGCTTTGGGCCGGATCATGATATTGCAGTTATCGGAGTCACCTAGTGCAG” here?
A: Its binding signal is 8550 fluorescence intensity (a.u.).

Q: “ACCCTAAACTGCAAAACCAGATATGTCGACCCTCGAATTACGGAGTCACCTAGTGCAG” was tested. Which binding signal did it give?
A: The binding signal was 8060 fluorescence intensity (a.u.).

Q: For “GACGGGTGTTTCTAGGGTTAAGGTTAGGTTTTTTTTTTGACGGAGTCACCTAGTGCAG”, which binding signal is on record?
A: Its binding signal is 9680 fluorescence intensity (a.u.).
